Counter-ions that a name gives are not always drawn. The list shows a part of the results. Part of the spread comes from offsets between plates or batches.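 The cells are HEK293 lines stably expressing B-domain-deleted factor VIII fused to Gaussia luciferase, either wild type or a misfolding-prone missense mutant. Each score is mean luminescence from triplicate wells minus the DMSO mean, divided by the DMSO standard deviation; a score of 2 or more counts as a hit, and low scores may reflect lower secretion or poorer cell viability.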

This experiment concerns HEK293 p.N1941S BDD-FVIII-Gluc. As to the kind of experiment: secreted FVIII-Gluc luciferase Z-score vs DMSO control; higher = more FVIII-Gluc secretion. As to conditions: 5 µM; 24 h.
With `COc1cc(NS(=O)(=O)c2ccc(N)cc2)nc(OC)n1` [Sulphadimethoxine], the “secreted FVIII-Gluc luciferase Z-score” value was inactive: -0.0658. For `O=c1c(-c2ccc(O)cc2)coc2cc(O)cc(O)c12` [Genistein] the value was inactive: 1.46; for `O=C1NCC2(CCN(CCc3ccccc3)CC2)O1` [Fenspiride HCl], active: 5.23. For `CCC(C)(C)C(=O)O[C@H]1C[C@@H](C)C=C2C=C[C@H](C)[C@H](CC[C@@H]3C[C@@H](O)CC(=O)O3)[C@H]21` [Simvastatin (Zocor)] the value was inactive: -0.89; for `COc1c(N2C[C@@H]3CCCN[C@@H]3C2)c(F)cc2c(=O)c(C(=O)O)cn(C3CC3)c12` [Moxifloxacin hydrochloride], inactive: 0.404. For `Oc1c(Br)cc(Br)c2cccnc12` [Broxyquinoline] the value was inactive: -0.279; for `CC1(C)S[C@@H]2[C@H](NC(=O)[C@H](N)c3ccc(O)cc3)C(=O)N2[C@H]1C(=O)O` [Amoxicillin (Amoxycillin)], inactive: -0.246. On to `Cc1cc(C2CCCCC2)n(O)c(=O)c1` [Ciclopirox ethanolamine], for which the “secreted FVIII-Gluc luciferase Z-score” value was inactive: -1.37. For `O=C(O)C(=O)O.[NH-]C1CCCCC1[NH-].[Pt+2]` (stereo unspecified) [Oxaliplatin (Eloxatin)] the value was inactive: -9.76; for `N=C(N)NS(=O)(=O)c1ccc(N)cc1` [Sulfaguanidine], inactive: 1.04.

In the case of `C[C@H](CCC(=O)O)[C@H]1CC[C@H]2[C@@H]3CC[C@@H]4C[C@H](O)CC[C@]4(C)[C@H]3CC[C@]12C` [Lithocholic acid], the “secreted FVIII-Gluc luciferase Z-score” value was inactive: 0.719.

For the origin of these results see the supplement of paper PMC12024529.
